Among the data in article PMC8138060 are binding values, retold here.

Protein sequences, listed by entry. Tags and fused reporters are not part of them.
UniProt P52480: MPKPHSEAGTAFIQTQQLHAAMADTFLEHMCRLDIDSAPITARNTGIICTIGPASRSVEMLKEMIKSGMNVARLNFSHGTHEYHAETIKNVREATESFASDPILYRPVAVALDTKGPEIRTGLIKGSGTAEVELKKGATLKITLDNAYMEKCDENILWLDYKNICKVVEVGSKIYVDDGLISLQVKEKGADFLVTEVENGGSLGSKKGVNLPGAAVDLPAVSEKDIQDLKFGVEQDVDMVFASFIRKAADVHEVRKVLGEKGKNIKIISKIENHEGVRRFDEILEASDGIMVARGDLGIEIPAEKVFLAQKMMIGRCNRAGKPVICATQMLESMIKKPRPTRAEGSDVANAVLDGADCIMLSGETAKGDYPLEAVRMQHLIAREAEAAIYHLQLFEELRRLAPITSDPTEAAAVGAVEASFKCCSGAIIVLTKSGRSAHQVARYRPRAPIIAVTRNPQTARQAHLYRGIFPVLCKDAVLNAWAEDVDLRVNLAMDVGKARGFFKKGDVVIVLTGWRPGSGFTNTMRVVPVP
UniProt Q9QVP9: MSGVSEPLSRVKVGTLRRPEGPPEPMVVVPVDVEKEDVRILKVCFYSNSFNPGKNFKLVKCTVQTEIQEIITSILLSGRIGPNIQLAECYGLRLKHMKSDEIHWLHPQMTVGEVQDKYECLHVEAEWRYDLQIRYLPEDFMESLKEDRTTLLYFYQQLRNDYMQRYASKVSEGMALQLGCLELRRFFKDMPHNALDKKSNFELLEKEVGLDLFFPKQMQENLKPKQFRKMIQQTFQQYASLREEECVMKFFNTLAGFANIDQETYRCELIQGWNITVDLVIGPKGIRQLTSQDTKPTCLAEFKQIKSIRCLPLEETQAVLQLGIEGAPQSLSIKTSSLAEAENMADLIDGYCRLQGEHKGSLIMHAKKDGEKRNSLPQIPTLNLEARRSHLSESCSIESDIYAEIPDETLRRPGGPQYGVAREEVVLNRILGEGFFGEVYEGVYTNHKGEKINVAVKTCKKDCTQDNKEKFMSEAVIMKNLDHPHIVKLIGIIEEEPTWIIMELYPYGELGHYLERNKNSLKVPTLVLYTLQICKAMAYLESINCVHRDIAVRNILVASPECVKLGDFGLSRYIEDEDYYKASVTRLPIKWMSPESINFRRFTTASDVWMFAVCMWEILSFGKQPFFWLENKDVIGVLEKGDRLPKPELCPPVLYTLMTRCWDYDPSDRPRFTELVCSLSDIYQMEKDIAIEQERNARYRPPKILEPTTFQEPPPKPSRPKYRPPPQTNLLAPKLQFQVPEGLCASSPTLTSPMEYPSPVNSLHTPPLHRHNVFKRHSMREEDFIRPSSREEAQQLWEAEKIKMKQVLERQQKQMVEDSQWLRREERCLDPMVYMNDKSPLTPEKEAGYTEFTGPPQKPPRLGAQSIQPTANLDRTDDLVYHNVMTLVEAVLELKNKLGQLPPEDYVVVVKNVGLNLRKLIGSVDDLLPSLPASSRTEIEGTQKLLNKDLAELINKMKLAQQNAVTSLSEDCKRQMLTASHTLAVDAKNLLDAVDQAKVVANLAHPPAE

These are yes or no findings as the source states them, for the method shown. Binding seen in cells or lysates may run through a third protein.

The target of this experiment is Pyruvate kinase M2 (mouse (endogenous in BMDMs)) (UniProt P52480). Kind of experiment: co-IP; BMDMs stimulated with LPS for 1 or 2 hours, lysed in modified RIPA buffer; supernatant incubated with anti-PKM2, anti-Pyk2 or control IgG antibody, Protein A agarose beads, western blot. For orientation: In western blotting, separated proteins are transferred to a membrane and probed.

With “proline-rich tyrosine kinase 2 (from UniProt Q9QVP9 1-1009) (enzyme)”, the binding result is on record as “no binding”.
